# The entries are a selection whose mix differs from that of the whole data set. For part of these data: At the low end of the ranking the order means little. The list shows a part of the results. For part of these data: The source does not settle which construct or isoform was used.
# Protein sequences, listed by entry. Tags and fused reporters are not part of them. Lines headed by an entry give the natural chain unless they say otherwise; changes in a name come on top.
# UniProt Q00613: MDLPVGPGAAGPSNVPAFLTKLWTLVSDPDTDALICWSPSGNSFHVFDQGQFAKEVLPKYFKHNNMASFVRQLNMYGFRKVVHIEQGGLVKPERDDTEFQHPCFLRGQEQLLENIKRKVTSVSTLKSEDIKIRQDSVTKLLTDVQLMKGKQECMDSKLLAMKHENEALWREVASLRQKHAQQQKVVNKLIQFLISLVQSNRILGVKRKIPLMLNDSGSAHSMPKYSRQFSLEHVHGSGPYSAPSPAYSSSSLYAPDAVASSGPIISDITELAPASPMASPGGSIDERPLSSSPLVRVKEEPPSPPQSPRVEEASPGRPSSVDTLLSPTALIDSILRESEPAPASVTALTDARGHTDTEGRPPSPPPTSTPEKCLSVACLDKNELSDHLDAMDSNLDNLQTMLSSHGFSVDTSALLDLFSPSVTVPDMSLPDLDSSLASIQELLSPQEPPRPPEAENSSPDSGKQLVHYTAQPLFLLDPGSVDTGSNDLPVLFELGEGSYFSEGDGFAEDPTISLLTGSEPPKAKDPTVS
# How the values were obtained:
# [1] = molecular target: HSF1 (UniProt Q00613); assay: DAPPL (digital affinity profiling via proximity ligation, sequencing); details: 10 mM Tris-HCl pH 7.5, 50 mM NaCl, 1 mM DTT, 4% glycerol, room temperature, 30 min; GST-TFs on glutathione beads, 16-mer random dsDNA library, 0.1% …; high values mean tight binding; double strand, one strand shown; scale: fold enrichment (6-mer frequency, TF over GST control)
# [2] = molecular target: T1, ELF2 (UniProt Q15723); assay: as above; details: 10 mM Tris-HCl pH 7.5, 50 mM NaCl, 1 mM DTT, 4% glycerol, room temperature, 30 min; GST-TFs on glutathione beads, 16-mer random dsDNA library, 0.1% …; high values mean tight binding; double strand, one strand shown; scale: fold enrichment (6-mer frequency, TF over GST control)
# T1 sequence: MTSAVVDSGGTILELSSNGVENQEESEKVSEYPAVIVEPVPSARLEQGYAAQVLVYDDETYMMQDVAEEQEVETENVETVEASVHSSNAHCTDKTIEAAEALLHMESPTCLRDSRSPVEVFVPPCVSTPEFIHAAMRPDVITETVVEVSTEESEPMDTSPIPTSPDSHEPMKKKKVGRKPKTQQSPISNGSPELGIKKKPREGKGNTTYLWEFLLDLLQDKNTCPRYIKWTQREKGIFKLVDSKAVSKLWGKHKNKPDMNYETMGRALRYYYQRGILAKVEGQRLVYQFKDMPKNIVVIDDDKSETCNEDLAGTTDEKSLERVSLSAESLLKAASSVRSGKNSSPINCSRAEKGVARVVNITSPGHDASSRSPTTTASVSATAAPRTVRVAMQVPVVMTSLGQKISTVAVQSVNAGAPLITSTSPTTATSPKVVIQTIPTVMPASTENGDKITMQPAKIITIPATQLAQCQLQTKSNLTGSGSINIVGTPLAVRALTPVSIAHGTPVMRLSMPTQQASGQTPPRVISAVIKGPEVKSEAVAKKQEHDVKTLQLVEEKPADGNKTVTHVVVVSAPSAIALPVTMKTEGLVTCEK
Sequence,binding signal [1],binding signal [2]
ACCAAA,0.899,0.993
GTACTA,1.15,1.08
GAACTA,1.32,1.5
CAGCCT,0.97,0.943
CGGGCT,0.887,0.998
CGGATG,0.748,1.92
AGTCCC,0.878,1.03
AGATGG,0.974,0.8
CTGCGC,1.1,1.24
GTTACA,0.886,1.12
TTGGCG,0.875,0.951
ATTAGG,1.57,1.06
ATTTCG,1.63,1.24
ACCGCT,0.945,1.09
GCCACT,0.924,1.21
ATCACG,0.992,0.959
ACACCT,0.875,1.03
ATAGGG,0.906,0.985
CGCACA,0.835,0.98
GCTAGT,1.12,0.983
ATCACA,0.97,1.06
CACATA,0.992,1.12
GTTATC,1.03,1.1
TGCGGC,0.883,1.04

Sequence,binding signal [1],binding signal [2]
ATGACC,1.42,1.52
CGACGG,0.853,0.96
TCCCCG,1.16,1.2
TAGTCA,0.932,0.874
CGCAAC,0.838,1.03
AGTGCA,0.747,1.11
ACGCGT,0.84,0.866
GCTTTT,1.12,1.09
GTACTG,0.903,1.03
AAGGTT,1.27,1.02
CTACCG,1.16,1.88
TACGCG,1.17,1.13
AAGATG,1.19,1.09
AAGTAG,1.11,1.38
GCCGGA,0.522,1.25
CACGGC,0.761,0.913
TATTAC,1.33,1.22
TGCCTT,1.27,1.35
CTTGCT,1.24,1.32
GTAGCT,0.926,1.12
TCAACG,0.975,1.02
CAAACG,0.857,0.94
GCTTGG,0.959,0.946
GTGGCA,0.777,0.951

Sequence,binding signal [1],binding signal [2]
ATTGGT,1.12,1.18
TGCCTA,0.963,1
CCCGAA,2.56,1.28
GGCAGC,0.756,0.925
TGATAT,1.01,1.09
ACCCCA,0.9,1.06
ACTCCG,1.16,1.42
ACTGAC,0.943,1.16
ATTGTG,0.876,0.89
ACCTCC,1.11,1.4
ATGTTG,0.997,1.2
CTCGCA,1.61,1.23
GCCGCT,0.926,1.04
TAGTGG,1.33,1.12
CCTCCA,1.29,1.28
GCGCGT,0.753,0.825
TAACCG,0.906,1.18
AATCCT,2.25,1.32
CCCGTC,0.915,1.04
GTGCAT,0.765,1.06
CCGACG,1.02,1.2
GGCTGC,0.739,0.943
AGCCAC,0.886,0.953
ACGTCC,1.07,1.8

Sequence,binding signal [1],binding signal [2]
CCACAC,0.884,1.02
CTAGCA,2.11,1.18
CTTCGA,2.52,1.33
CGTATC,0.926,1.22
ACAGGA,0.69,1.38
ATCCAT,1.23,1.1
GTGCGC,0.796,1
ATACTC,1.41,1.23
CTCTCG,1.99,1.32
ACGACA,0.963,1.05
TGCCGG,0.718,1.2
TGCAAG,0.94,0.999
AGGAAC,0.901,1.2
GACTTG,0.73,0.798
GCGAAA,1.26,0.947
TCTTCC,1.69,4.11
GCTCTT,1.34,1.54
AGCACA,0.995,1.05
CCGTAT,0.882,1.36
TATCGC,1.22,1.11
CCACCC,0.904,1.18
TCCTGG,1.29,1.96
ACCATT,0.998,1.12
TCACCT,1.03,1.09

Sequence,binding signal [1],binding signal [2]
GGAAGA,0.884,1.68
GCTGTT,0.909,1.1
GCGCAC,0.69,0.916
ATAGTG,0.822,0.868
ATCGCG,1.09,0.914
ATAACA,1.2,1.24
AATGTT,2.33,1.5
TCAAGC,0.984,0.947
CAACAC,0.86,1.13
CTTACA,1.31,1.27
TTATAA,1.79,1.15
GTAATA,1.24,1.22
CGCGCC,0.847,1.03
CTCGCG,1.55,1.35
ACAACC,0.937,1.23
GCTATC,0.891,1.04
TGGTCG,0.75,0.884
GCACAT,0.908,1.1
TGATAA,1.2,0.997
TGCCAT,0.909,1.06
TCATGT,0.929,1.04
GCACAA,0.883,1.09
GTATCA,0.849,1.05
GGTACA,0.862,1.02

# Shown as tab-separated lines: entries from further up
Sequence	binding signal [1]	binding signal [2]
GGAAGA	0.884	1.68
GCTGTT	0.909	1.1
AATGTT	2.33	1.5
CTTACA	1.31	1.27
